From US7125891B2, “Tripeptidyl peptidase inhibitors” (Janssen Pharmaceutica N.V., priority 2000, dated 2006)
Where a name gives a salt, the structure may show the parent alone. Some of these results come from one statement about several compounds together.

Molecular target: Tripeptidyl Peptidase II (TPP II) (UniProt Q64560)
Test: Inhibition of Tripeptidyl Peptidase II (TPP II)
Format: biochemical
Conditions: 15 μM AAF-AMC as substrate, 50 mM potassium phosphate buffer pH 7.5, 1% DMSO, fluorescence; read-out: IC50 value, i.e. the concentration needed to provide 50% inhibition

Row | Structure (SMILES) | IC50 [µM]
1 | CCc1cnc(C2Cc3ccccc3N2C(=O)CN)[nH]1 (stereo not drawn) [Compound 19] | ≤ 10
2 | CCCc1nc(C2Cc3ccccc3N2C(=O)CN)[nH]c1C(=O)NCC(=O)OC (stereo not drawn) [Compound 111] | ≤ 10
3 | CCCc1cnc(C2Cc3ccccc3N2C(=O)C(N)Cc2ccccc2)[nH]1 (stereo not drawn) [Compound 66] | ≤ 10
4 | CCCc1cnc(C2Cc3ccccc3N2C(=O)C(N)C(C)C)[nH]1 (stereo not drawn) [Compound 55] | ≤ 10
5 | CC(N)C(=O)N1c2ccccc2CC1c1nc2ccccc2[nH]1 (stereo not drawn) [Compound 57] | ≤ 10
6 | NCC(=O)N1c2ccccc2CC1c1nc2c(O)cccc2[nH]1 (stereo not drawn) [Compound 73] | ≤ 10
7 | CCCc1cnc(C2CCc3ccccc3N2C(=O)C(C)N)[nH]1 (stereo not drawn) [Compound 6] | ≤ 10
8 | CCc1csc(C2Cc3ccccc3N2C(=O)CN)n1 (stereo not drawn) [Compound 84] | ≤ 10
9 | CCCc1cnc(C2Cc3ccccc3N2C(=O)C2CCCN2)[nH]1 (stereo not drawn) [Compound 48] | ≤ 10
10 | COC(=O)c1ccc2[nH]c(C3Cc4ccccc4N3C(=O)CN)nc2c1 (stereo not drawn) [Compound 61] | ≤ 10
11 | COC(=O)CNC(=O)c1cnc(C2Cc3ccccc3N2C(=O)CN)[nH]1 (stereo not drawn) [Compound 120] | ≤ 10
12 | CCCc1cnc(C2Cc3cc(OC)ccc3N2C(=O)CN)[nH]1 (stereo not drawn) [Compound 114] | ≤ 10
13 | CCCc1[nH]c(C2Cc3ccccc3N2C(=O)CN)nc1C (stereo not drawn) [Compound 101] | ≤ 10
14 | CCCc1cnc(C2Cc3ccccc3N2C(=O)C(N)CC)[nH]1 (stereo not drawn) [Compound 15, [2S-[1(R*),2R*]]-α-ethyl-2,3-dihydro-β-oxo-2-(4-propyl-1H-imidazol-2-yl)-1H-indole-1-ethanamine dihydrochloride dihydrate] | ≤ 10
15 | CCCc1cnc(C2Cc3cc(OC)ccc3N2C(=O)C(C)N)[nH]1 (stereo not drawn) [Compound 116] | ≤ 10
16 | CCCc1cnc(C2CCc3ccccc3N2C(=O)C(CC)NC(=O)OC(C)(C)C)[nH]1 (stereo not drawn) [Compound 22] | ≤ 10
17 | NCC(=O)N1c2ccccc2CC1c1ncc(C(F)(F)F)[nH]1 (stereo not drawn) [Compound 82] | ≤ 10
18 | CC(N)C(=O)N1c2ccccc2CC1c1nc2cc(Cl)ccc2[nH]1 (stereo not drawn) [Compound 44] | ≤ 10
19 | CCC(N)C(=O)N1c2ccccc2CC1c1nc2ccccc2[nH]1 (stereo not drawn) [Compound 28] | ≤ 10
20 | CCCc1cnc(C2Cc3cc(Cl)ccc3N2C(=O)C(N)CC)[nH]1 (stereo not drawn) [Compound 126] | ≤ 10
21 | CCCc1nc(C2Cc3ccccc3N2C(=O)CN)[nH]c1C(=O)OCC (stereo not drawn) [Compound 104] | ≤ 10
22 | CCCc1cnc(C2Cc3cc(Cl)ccc3N2C(=O)CN)[nH]1 (stereo not drawn) [Compound 88] | ≤ 10
23 | CCc1cnc(C2Cc3cc(Cl)ccc3N2C(=O)C(C)N)[nH]1 (stereo not drawn) [Compound 142] | ≤ 10
24 | CCCc1cnc(C2Cc3cc(Cl)ccc3N2C(=O)C(C)N)[nH]1 (stereo not drawn) [Compound 124] | ≤ 10
25 | NCC(=O)N1c2ccccc2CC1c1nc2cc(C(=O)O)ccc2[nH]1 (stereo not drawn) [Compound 62, 2-[1-(aminoacetyl)-2,3-dihydro-1H-indol-2-yl]-1H-benzimidazole-5-carboxylic acid monohydrate trifluoroacetate (1:2)] | ≤ 10
26 | CCCc1cnc(C2Cc3cc(F)ccc3N2C(=O)CN)[nH]1 (stereo not drawn) [Compound 95] | ≤ 10
27 | CCCc1cnc(C2Cc3ccccc3N2C(=O)C2(N)CC2)[nH]1 (stereo not drawn) [Compound 68] | ≤ 10
28 | CCCc1cnc(C2Cc3ccccc3N2C(=O)CN)[nH]1 (stereo not drawn) [Compound 70] | ≤ 10
29 | CCCc1cnc(C2Cc3ccccc3N2C(=O)C(NC(=O)OC(C)(C)C)C(C)C)[nH]1 (stereo not drawn) [Compound 54] | ≤ 10
30 | CCCc1cnc(C2CCc3ccccc3N2C(=O)C(N)CC)[nH]1 (stereo not drawn) [Compound 24] | ≤ 10
